Source: PubChem BioAssay AID504804 (Drosophila RNAi Screening Center, 2011)

Purpose: 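Fly genes whose loss lessens doxorubicin-driven cell death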 (primary screen)
Cells: Drosophila Kc cells
Knock-down reagent: long dsRNA against Drosophila genes, 0.5 µg dsRNA per well
Timing: 96 h (48 h knock-down, then 48 h drug)
Treatment: doxorubicin 5 µg/ml for 48 h, added 48 h after dsRNA
Measured: 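Luminescent ATP counts per replicate, not normalised, reflecting viable cells after 48 h dsRNA knock-down followed by 48 h of 5 µg/ml doxorubicin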
Scale: raw ATP luminescence: higher = more viable cells, protection from doxorubicin
Active means: 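z-score of 2 or more over plate mean in both duplicates, retained only when retests and separate dsRNAs confirm the protection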
The deposit covers about 19,000 reagents; shown is an unselected part of those that have a named target and a result. Over the whole deposit, 47 (0.25%) were called active. 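Signals are raw, not normalised; exact z-scores behind calls not deposited; actives needed confirmation, so some wells reaching 2 SD are inactive.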 A number with no mark means an inactive call. Reagents against one gene are numbered here. A plus sign joins genes that one reagent is predicted to hit. Reagent sequences are not shown.

gene | dsRNA no. | SD above plate mean | raw ATP luminescence, replicate 1 | raw ATP luminescence, replicate 2
Hers + amn | 1 | – | 3.48e5 | 3.07e5
Polr2L (RNA polymerase II, I and III subunit L) | 1 | – | 41590 | 40570
LeuRS-m (Leucyl-tRNA synthetase, mitochondrial) | 1 | – | 39223 | 39753
CG2898 | 1 | – | 3.39e5 | 2.88e5
Task7 (TWIK-related acid-sensitive K[+] channel 7) | 1 | – | 54840 | 49267
gammaTub37C (gamma-Tubulin at 37C) | 1 | – | 85183 | 55530
gol (goliath) | 1 | – | 66520 | 53487
CG30376 | 1 | – | 71627 | 59013
CG46301 | 1 | – | 66200 | 64937
CG13050 | 1 | – | 50457 | 36397
Mlc1 (Myosin alkali light chain 1) | 1 | – | 35890 | 37470
sona (sol narae) | 1 | – | 40803 | 52430
sona (sol narae) | 2 | – | 34490 | 38843
sona (sol narae) | 3 | – | 37110 | 43840
CG14174 | 1 | – | 86270 | 69177
Zn72D (Zinc-finger protein at 72D) | 1 | – | 22007 | 24967
CG15450 | 1 | – | 2.93e5 | 3.02e5
Rlb1 | 1 | – | 53397 | 49910
Tre1 (Trapped in endoderm 1) | 1 | – | 37110 | 52920
CG18547 | 1 | – | 49227 | 46340
CG18586 | 1 | – | 77567 | 87377
CG7646 | 1 | – | 64790 | 59490
CG13048 | 1 | – | 48003 | 39177
emb (embargoed) | 1 | – | 1.19e5 | 64660
mRpL51 (mitochondrial ribosomal protein L51) | 1 | – | 77280 | 60313
santa-maria | 1 | – | 3.38e5 | 2.62e5
santa-maria | 2 | – | 1.17e5 | 65480
Tmem63 (Transmembrane protein 63) | 1 | – | 34120 | 62553
Rpn12 (Regulatory particle non-ATPase 12) | 1 | – | 63697 | 48537
CG6403 | 1 | – | 62250 | 52210
CG2656 | 1 | – | 62157 | 25063
Atf6 | 1 | – | 90417 | 97587
Atf6 | 2 | – | 43980 | 51383
PAPLA1 (Phosphatidic Acid Phospholipase A1) | 1 | – | 1.02e5 | 44183
PAPLA1 (Phosphatidic Acid Phospholipase A1) | 2 | – | 44163 | 82250
hob (hobbit) | 1 | – | 45240 | 38693
Prx6a (Peroxiredoxin 6a) | 1 | – | 1.41e5 | 85117
NetA (Netrin-A) | 1 | – | 3.43e5 | 3.33e5
Pgant6 (Polypeptide N-Acetylgalactosaminyltransferase 6) | 1 | – | 83967 | 37100
Dab (Disabled) | 1 | – | 99293 | 50390
inaD (inactivation no afterpotential D) | 1 | – | 38067 | 47237
Lipt1 (Lipoyltransferase 1) | 1 | – | 1.12e5 | 99787
Lipt1 (Lipoyltransferase 1) | 2 | – | 64263 | 49690
CG42808 + CG42807 | 1 | – | 50493 | 46867
Sxl + CG14425 (retired record) | 1 | – | 44930 | 53430

Reformatted: entries from further up
{"gene":"NetA (Netrin-A)","dsRNA no.":1,"raw ATP luminescence, replicate 1":3.43e5,"raw ATP luminescence, replicate 2":3.33e5}
{"gene":"Pgant6 (Polypeptide N-Acetylgalactosaminyltransferase 6)","dsRNA no.":1,"raw ATP luminescence, replicate 1":83967,"raw ATP luminescence, replicate 2":37100}
{"gene":"Dab (Disabled)","dsRNA no.":1,"raw ATP luminescence, replicate 1":99293,"raw ATP luminescence, replicate 2":50390}
{"gene":"inaD (inactivation no afterpotential D)","dsRNA no.":1,"raw ATP luminescence, replicate 1":38067,"raw ATP luminescence, replicate 2":47237}

Continued.
gene | dsRNA no. | SD above plate mean | raw ATP luminescence, replicate 1 | raw ATP luminescence, replicate 2
CG9452 | 1 | – | 75783 | 76757
CG5079 | 1 | – | 18880 | 19640
CG16890 | 1 | – | 76647 | 59273
Hsp67Ba (Heat shock gene 67Ba) | 1 | – | 75123 | 62697
CG10345 | 1 | – | 32887 | 43957
rpr (reaper) | 1 | – | 62377 | 58807
Ir94c (Ionotropic receptor 94c) | 1 | – | 2.05e5 | 2.45e5
Ir56a (Ionotropic receptor 56a) | 1 | – | 1.34e5 | 1.41e5
CG11899 | 1 | – | 32990 | 32480
Pde8 (Phosphodiesterase 8) | 1 | – | 66187 | 53507
CG42685 | 1 | – | 77033 | 1.14e5
Grip75 | 1 | – | 46327 | 90400
gek (genghis khan) | 1 | – | 66490 | 70313
CG6040 | 1 | – | 41703 | 52170
att-ORFB + DPCoAC | 1 | – | 45620 | 45130
Txl (Thioredoxin-like) | 1 | – | 69410 | 75927
brwl (brickwall) | 1 | – | 1.45e5 | 1.75e5
brwl (brickwall) | 2 | – | 93797 | 86707
Naa80 (N(alpha)-acetyltransferase 80) | 1 | – | 56357 | 54387
CG13678 | 1 | – | 2.04e5 | 1.94e5
Ctps (CTP synthase) | 1 | – | 96087 | 92187
Ctps (CTP synthase) | 2 | 2 to 3 SD above plate mean | 49267 | 50743
Ctps (CTP synthase) | 3 | – | 43730 | 45067
dap (dacapo) | 1 | – | 71663 | 52713
beta'COP (Coat Protein (coatomer) beta') | 1 | – | 72077 | 82387
CG10053 | 1 | – | 33473 | 22300
par-1 | 1 | – | 81603 | 39330
par-1 | 2 | – | 67720 | 77640
CG12480 | 1 | – | 3.53e5 | 3.33e5
dnc (dunce) | 1 | – | 23160 | 28820
dnc (dunce) | 2 | – | 49000 | 58050
dnc (dunce) | 3 | – | 47330 | 59920
dnc (dunce) | 4 | – | 38330 | 47600
dnc (dunce) | 5 | – | 73740 | 61070
CG31189 | 1 | – | 70130 | 47250
Trap1 | 1 | – | 78720 | 71293
CG43345 | 1 | – | 98703 | 65657
Rpn8 (Regulatory particle non-ATPase 8) | 1 | – | 48077 | 46187
ttm3 (tiny tim 3) | 1 | – | 54733 | 58407
